Test results as given in publication PMC6010126, “Biochemical characterization of the native α-carbonic anhydrase purified from the mantle of the Mediterranean mussel, Mytilus galloprovincialis” (Journal of Enzyme Inhibition and Medicinal Chemistry, 2017).

Chains of the proteins cited; added tags and fusions are not shown. Residues count along the entry.
UniProt A0A0N9FGL8, 2-256: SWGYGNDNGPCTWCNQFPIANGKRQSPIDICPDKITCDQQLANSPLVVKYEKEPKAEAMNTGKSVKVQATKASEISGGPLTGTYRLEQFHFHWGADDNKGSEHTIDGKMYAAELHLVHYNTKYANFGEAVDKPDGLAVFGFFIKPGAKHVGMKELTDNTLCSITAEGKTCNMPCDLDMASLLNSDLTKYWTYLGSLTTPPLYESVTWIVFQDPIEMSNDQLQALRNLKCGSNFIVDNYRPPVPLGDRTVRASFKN

Target: T1, Mytilus galloprovincialis α-CA (native mussel CA) (Mytilus galloprovincialis, UniProt A0A0N9FGL8)
T1 construct: gene CAII
Details: read-out: KI (acetazolamide); CO2 1.7-17 mM, 20 mM Tris pH 8.3, 20 mM NaClO4, phenol red; 15 min preincubation at room temperature; errors ±5%, three assays

`CC(=O)Nc1nnc(S(N)(=O)=O)s1` [acetazolamide] showed a Ki of 380 nM.
